The record followed here is publication doi:10.1101/2020.07.06.189761.

For at least one entry, the source does not settle the construct or the ends of the probe. For part of these data: At least one verdict rests on a figure or table, not on a statement of the authors. For part of these data: Tags and fusion partners may be left off the protein sequences shown.

What is called Kd is the concentration at which binding is half-saturated. Lower therefore signals tighter binding.

Data set [1] concerns the target T1, UM-Pif1 (unmodified Pif1) (Saccharomyces cerevisiae) (UniProt P07271).
T1 sequence (looked up, limits assumed): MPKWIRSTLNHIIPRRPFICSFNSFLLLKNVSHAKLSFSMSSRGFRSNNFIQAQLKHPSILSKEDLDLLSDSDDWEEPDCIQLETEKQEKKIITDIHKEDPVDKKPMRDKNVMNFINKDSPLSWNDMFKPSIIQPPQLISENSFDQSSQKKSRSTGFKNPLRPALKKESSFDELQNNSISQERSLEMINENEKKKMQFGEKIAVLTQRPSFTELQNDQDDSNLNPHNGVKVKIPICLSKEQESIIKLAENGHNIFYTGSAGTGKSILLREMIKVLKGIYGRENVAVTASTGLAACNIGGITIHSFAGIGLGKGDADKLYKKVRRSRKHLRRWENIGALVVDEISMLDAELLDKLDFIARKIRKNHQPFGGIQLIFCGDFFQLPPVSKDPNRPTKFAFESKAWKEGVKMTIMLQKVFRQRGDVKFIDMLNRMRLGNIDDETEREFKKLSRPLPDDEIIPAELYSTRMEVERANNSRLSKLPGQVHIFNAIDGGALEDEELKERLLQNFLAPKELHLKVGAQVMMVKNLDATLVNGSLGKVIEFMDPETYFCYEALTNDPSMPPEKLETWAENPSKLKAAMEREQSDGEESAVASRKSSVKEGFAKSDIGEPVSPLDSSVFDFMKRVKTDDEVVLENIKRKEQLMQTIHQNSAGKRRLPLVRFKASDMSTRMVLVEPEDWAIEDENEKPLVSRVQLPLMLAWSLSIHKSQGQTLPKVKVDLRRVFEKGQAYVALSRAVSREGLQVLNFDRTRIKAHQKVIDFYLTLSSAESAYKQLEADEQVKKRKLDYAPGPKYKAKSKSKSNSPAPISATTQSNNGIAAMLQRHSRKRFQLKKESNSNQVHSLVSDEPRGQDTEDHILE
The data set is described as follows: EMSA. As to conditions: 100 and 200 nM protein, 5 nM DNA, affinity differs from AC-Pif1, confirming BLI. (Mobility shift assays separate free from complexed probe on a gel.)

Data set [2] concerns the target AC-Pif1 (acetylated Pif1) (Saccharomyces cerevisiae) (UniProt P07271). Nature of the data set: BLI. As to conditions: acetylated by Piccolo NuA4.
Data set [3] addresses AC-Pif1ΔN (acetylated) del1-233 (Saccharomyces cerevisiae) (UniProt P07271). The data set is described as follows: BLI. As to conditions: acetylated by Piccolo NuA4; residues 234-859.

With “TTTTTTTTTTTTTTTTTTTTTTTTTGTGTCACTCACATAGCGTTC / GAACGCTATGTGAGTGACACTTTTTTTTTTTTTTTTTTTTTTTTT [DNA fork (T1/D1)]”, the binding result in data set [1] is given as “binds”.
For “TTTTTTTTTTTTTTTTTTTTTTTTTGTGTCACTCACATAGCGTTC [T1 45-nt ssDNA]”, the figures for the Kd in data set [2] and in data set [3] were 7.2 nM and 15.2 nM, respectively.
